Data reported in patent EP0019589A1, “Tripeptide derivatives and their use in a process for determining enzymes” (Pentapharm A.G., priority 1979, dated 1980).
Some results were stated once for a whole list of compounds, not compound by compound. Non-standard residues stand in square brackets, D forms with d. Residues, ends and D or L forms follow the SMILES beside them. *: point of attachment. Cha = N[C@@H](CC1CCCCC1)C(=O)O; dCha = N[C@H](CC1CCCCC1)C(=O)O; dChg = N[C@@H](C(=O)O)C1CCCCC1; pNA = O=[N+]([O-])c1ccc(N*)cc1; Chg = N[C@H](C(=O)O)C1CCCCC1; Phg = N[C@H](C(=O)O)c1ccccc1; dNle = CCCC[C@@H](N)C(=O)O; Pip = O=C(O)[C@@H]1CCCCN1; dNva = CCC[C@@H](N)C(=O)O; dAbu = CC[C@@H](N)C(=O)O; βNA = c1ccc2cc(N*)ccc2c1

How the values were obtained:
[1] = molecular target: T1, Urinkallikrein (Homo sapiens, UniProt P06870); test: Cleavage of chromogenic substrate by urinary kallikrein in human urine; format: biochemical; conditions: statement in words
T1 construct: 1 ml Urin und 1 ml TRIS-Imidazol-Puffer mit pH 7,9; from tissue; host or cells: human urine
Method: 1. Bestimmung von Urinkallikrein.
1 ml Urin und 1 ml TRIS-Imidazol-Puffer mit pH 7,9 und Ionenstärke 1,0 werden 5 Min. bei 37°C inkubiert undcänn zentrifugiert, um Sedimente zu entfernen.
In einer-Plastikküvette werden 1,4 ml dest. H20 von 37°C und 0,4 ml des Zentrifugats gut gemischt. Zu dieser Mischung gibt man 0,2 ml einer 2 x 10^-3 molaren wässrigen Substratlösung und durchmischt die Komponenten schnell. Dieses Gemisch wird genau 15 Min. bei 37°C inkubiert. Dann wird dem Reaktionsgemisch 0,2 ml Eisessig zugemischt, um die Enzymreaktion zu unterbrechen. Zur Farbmessung verwendet man eine Vergleichsprobe (Blindprobe), die aus den gleichen Komponenten zusammengesetzt ist, wobei jedoch der Eisessig vor Zugabe des Substrates zugesetzt wird, um die Enzymreaktion zu verhindern. Dann wird bei 405 nm photometrisch oder spektrophotometrisch die Menge der gebildeten farbigen Verbindung RNH 2 aus der Differenz zwischen der Blindprobe und der zu bestimmenden Probe ermittelt. Aus dem ermittelten Wert wird die Urinkallikreinaktivität im Urin nach der folgenden Formel berechnet: [formula] • Δ OD = Zunahme der optischen Dichte bei 405 nm während 15 Min. • V = Totalvolumen des Bestimmungsansatzes = 2,2 ml • 1000 = Umrechnungsfaktor zur Umwandlung von U in mU • F = Verdünnungsfaktor des Urins (2) • v = Volumen der Probe = 0,4 ml • ε = Extinktionskoeffizient dividiert durch 1000 = 10,4
Bei der oben beschriebenen Bestimmungsmethode misst man somit die Summe der Aktivitäten von Urinkallikrein und Urokinase. Um die genaue Urinkallikreinaktivität zu erhalten, muss man die Urokinaseaktivität abziehen, welche dadurch bestimmt werden kann, dass man in einem Vergleichsversuch durch Zugabe von 0,075 Einheiten Trypsininhibitor (Trypsininhibitor aus Rinderlunge) pro ml Puffer die Urinkallikreinaktivität vollständig hemmt und nur die Urokinaseaktivität misst.
(§1) Bei der Messung des durch die enzymatische Hydrolyse des Substrates gebildeten Spaltproduktes RrNH2 geht man von der Voraussetzung aus, dass das Spaltprodukt ein UV-Spektrum besitzt, das von demjenigen des Substrates verschieden und in Richtung höherer Wellenlängen verschoben ist. Die Absorption des Substrates bei 405 nm ist praktisch Null. p-Nitroanilin als Spaltprodukt weist ein Absorptionsmaximum bei 380 nm und einen molaren Extinktionskoeffizienten von 13'200 auf. Bei 405 nm ist der Extinktionskoeffizient nur wenig niedriger, d.h. […] Der Grad der enzymatischen Hydrolyse des Substrates, welcher der Menge des abgespaltenen p-Nitroanilins proportional ist, lässt sich durch spektrophotometrische Messung bei 405 nm bestimmen. Auch bei Anwesenheit eines Ueberschusses an Substrat wird die Messung bei 405 nm nicht gestört.
(§2) Bei den Substraten, die als chromogene Gruppe eine 2-Naphthylamino-, 4-Methoxy-2-naphthylamino-, 4-Methyl-cumaryl-(7)-amino- oder 1,3-Di(methoxycarbonyl)-phenyl-(5)-amino-Gruppe enthalten, wird die Menge des Spaltproduktes R-NH2 durch Fluoreszenzspektrophotometrie gemessen. In einem aus Enzym, Puffer und Substrat bestehenden Testsystem misst man kontinuierlich das energieärmere emittierte Licht bei 400-470 nm, nachdem man das gebildete fluoreszierende Spaltprodukt mit energiereicherem Licht erregt hat. Die pro Zeiteinheit gebildete Menge Spaltprodukt ist ein Mass für die vorhandene Enzymaktivität. 1 µMol Spaltprodukt pro Minute entspricht definitionsgemäss 1 Enzym-Einheit, bezogen auf ein gegebenes Substrat.

[2] = molecular target: T2, Humanthrombin (Homo sapiens, UniProt P00734); test: Cleavage of chromogenic substrate by human NIH thrombin; format: biochemical; conditions: statement in words
T2 construct: Humanplasmin und hu-manem NIH-Thrombin
Text: as §1, §2

| SMILES | Eignung als Substrate zur Bestimmung von Urinkallikrein [1] | Empfindlichkeit als Substrate für die Bestimmung von Thrombin [2] |
| --- | --- | --- |
| CC(C)[C@@H](N)C(=O)N[C@@H](CC1CCCCC1)C(=O)N[C@@H](CCCNC(=N)N)C(=O)Nc1ccc2ccccc2c1 [Beispiel 7, 2HBr.H-D-Val-CHA-Arg-2-NA] (H-[dV]-[Cha]-Arg-βNA) | eignen sich besonders als Substrate |  |
| CCC[C@@H](N)C(=O)N[C@@H](CC1CCCCC1)C(=O)N[C@@H](CCCCN)C(=O)Nc1ccc([N+](=O)[O-])cc1 [Beispiel 7l] (H-[dNva]-[Cha]-Lys-pNA) | eignen sich besonders als Substrate |  |
| CC(C)[C@@H](N)C(=O)N[C@@H](CC1CCCCC1)C(=O)N[C@@H](CCCNC(=N)N)C(=O)Nc1ccc([N+](=O)[O-])cc1 [Beispiel 12, 2HBr.H-D-Val-CHA-Arg-pNA] (H-[dV]-[Cha]-Arg-pNA) | eignen sich besonders als Substrate |  |
| CC[C@@H](C)[C@@H](N)C(=O)N[C@@H](CC1CCCCC1)C(=O)N[C@@H](CCCNC(=N)N)C(=O)Nc1ccc([N+](=O)[O-])cc1 [Beispiel 13, 2HBr.H-D-Ile-CHA-Arg-pNA] (H-[dI]-[Cha]-Arg-pNA) | eignen sich besonders als Substrate |  |
| CC(C)[C@@H](N)C(=O)N[C@@H](CC1CCCCC1)C(=O)N[C@@H](CCCCN)C(=O)Nc1ccc([N+](=O)[O-])cc1 [Beispiel 14, 2HBr.H-D-Val-CHA-Lys-pNA] (H-[dV]-[Cha]-Lys-pNA) | eignen sich besonders als Substrate |  |
| CC[C@@H](C)[C@@H](N)C(=O)N[C@@H](CC1CCCCC1)C(=O)N[C@@H](CCCCN)C(=O)Nc1ccc([N+](=O)[O-])cc1 [Beispiel 15, 2HBr.H-D-Ile-CHA-Lys-pNA] (H-[dI]-[Cha]-Lys-pNA) | eignen sich besonders als Substrate |  |
| N=C(N)NCCC[C@H](NC(=O)[C@H](Cc1ccccc1)NC(=O)[C@H](N)C1CCCCC1)C(=O)Nc1ccc([N+](=O)[O-])cc1 [Beispiel 16, 2HBr.H-D-CHG-Phe-Arg-pNA] (H-[dChg]-Phe-Arg-pNA) | eignen sich besonders als Substrate |  |
| N=C(N)NCCC[C@H](NC(=O)[C@@H](NC(=O)[C@H]1CCCN1)C1CCCCC1)C(=O)Nc1ccc([N+](=O)[O-])cc1 [Beispiel 24, 2HBr.H-D-Pro-CHG-Arg-pNA] (H-[dP]-[Chg]-Arg-pNA) | eignen sich besonders als Substrate |  |
| N=C(N)NCCC[C@H](NC(=O)[C@@H]1CCCN1C(=O)[C@H](N)C1CCCCC1)C(=O)Nc1ccc([N+](=O)[O-])cc1 [Beispiel 27, 2HBr.H-D-CHG-Pro-Arg-pNA] (H-[dChg]-Pro-Arg-pNA) |  | sehr empfindliche Substrate |
| N=C(N)NCCC[C@H](NC(=O)[C@@H]1CCCCN1C(=O)[C@H](N)CC1CCC(O)CC1)C(=O)Nc1ccc([N+](=O)[O-])cc1 (stereo partly drawn) [Beispiel 28, 2HBr.H-D-CHT-Pip-Arg-pNA] |  | sehr empfindliche Substrate |
| CC(C)[C@@H](N)C(=O)N[C@@H](CC1CCC(O)CC1)C(=O)N[C@@H](CCCCN)C(=O)Nc1ccc([N+](=O)[O-])cc1 (stereo partly drawn) [Beispiel 34, 2AcOH.H-D-Val-CHT-Lys-pNA] | eignen sich besonders als Substrate |  |
| CC(C)C[C@@H](N)C(=O)N[C@@H](CC1CCCCC1)C(=O)N[C@@H](CCCNC(=N)N)C(=O)Nc1ccc([N+](=O)[O-])cc1 [Beispiel 36, 2HBr.H-D-Leu-CHA-Arg-pNA] (H-[dL]-[Cha]-Arg-pNA) | eignen sich besonders als Substrate |  |
| CCCC[C@@H](N)C(=O)N[C@@H](CC1CCCCC1)C(=O)N[C@@H](CCCNC(=N)N)C(=O)Nc1ccc([N+](=O)[O-])cc1 [Beispiel 37, 2HBr.H-D-Nleu-CHA-Arg-pNA] (H-[dNle]-[Cha]-Arg-pNA) | eignen sich besonders als Substrate |  |
| CCC[C@@H](N)C(=O)N[C@@H](CC1CCCCC1)C(=O)N[C@@H](CCCNC(=N)N)C(=O)Nc1ccc([N+](=O)[O-])cc1 [Beispiel 38, 2HBr.H-D-Nval-CHA-Arg-pNA] (H-[dNva]-[Cha]-Arg-pNA) | eignen sich besonders als Substrate |  |
| N=C(N)NCCC[C@H](NC(=O)[C@H](CC1CCCCC1)NC(=O)[C@H](N)Cc1ccccc1)C(=O)Nc1ccc([N+](=O)[O-])cc1 [Beispiel 39, 2HBr.H-D-Phe-CHA-Arg-pNA] (H-[dF]-[Cha]-Arg-pNA) | eignen sich besonders als Substrate |  |
| C[C@@H](N)C(=O)N[C@@H](CC1CCCCC1)C(=O)N[C@@H](CCCNC(=N)N)C(=O)Nc1ccc([N+](=O)[O-])cc1 [Beispiel 40, 2HBr.H-D-Ala-CHA-Arg-pNA] (H-[dA]-[Cha]-Arg-pNA) | eignen sich besonders als Substrate |  |
| CC[C@@H](N)C(=O)N[C@@H](CC1CCCCC1)C(=O)N[C@@H](CCCNC(=N)N)C(=O)Nc1ccc([N+](=O)[O-])cc1 [Beispiel 41, 2HBr.H-D-But-CHA-Arg-pNA] (H-[dAbu]-[Cha]-Arg-pNA) | eignen sich besonders als Substrate |  |
| C[C@H](NC(=O)[C@H](N)C1CCCCC1)C(=O)N[C@@H](CCCNC(=N)N)C(=O)Nc1ccc([N+](=O)[O-])cc1 [Beispiel 48, 2HBr.H-D-CHG-Ala-Arg-pNA] (H-[dChg]-Ala-Arg-pNA) |  | sehr empfindliche Substrate |
| C[C@H](NC(=O)[C@H](N)CC1CCCCC1)C(=O)N[C@@H](CCCNC(=N)N)C(=O)Nc1ccc([N+](=O)[O-])cc1 [Beispiel 49, 2HBr.H-D-CHA-Ala-Arg-pNA] (H-[dCha]-Ala-Arg-pNA) |  | sehr empfindliche Substrate |
| CC(C)C[C@H](NC(=O)[C@H](N)CC1CCC(O)CC1)C(=O)N[C@@H](CCCNC(=N)N)C(=O)Nc1ccc([N+](=O)[O-])cc1 (stereo partly drawn) [Beispiel 51, 2HBr.H-D-CHT-Leu-Arg-pNA] |  | sehr empfindliche Substrate |
| CC(C)C[C@H](NC(=O)[C@H](N)CC1CCCCC1)C(=O)N[C@@H](CCCNC(=N)N)C(=O)Nc1ccc([N+](=O)[O-])cc1 [Beispiel 52, 2HBr.H-D-CHA-Leu-Arg-pNA] (H-[dCha]-Leu-Arg-pNA) |  | sehr empfindliche Substrate |
| N=C(N)NCCC[C@H](NC(=O)[C@@H](NC(=O)[C@H](N)CC1CCCCC1)c1ccccc1)C(=O)Nc1ccc([N+](=O)[O-])cc1 [Beispiel 56, 2HBr.H-D-CHA-Ph'Gly-Arg-pNA] (H-[dCha]-[Phg]-Arg-pNA) |  | sehr empfindliche Substrate |
| N=C(N)NCCC[C@H](NC(=O)[C@@H](NC(=O)[C@H](N)CC1CCC(O)CC1)c1ccccc1)C(=O)Nc1ccc([N+](=O)[O-])cc1 (stereo partly drawn) [Beispiel 57, 2HBr.H-D-CHT-Ph'Gly-Arg-pNA] |  | sehr empfindliche Substrate |
| N=C(N)NCCC[C@H](NC(=O)[C@@H](NC(=O)[C@H](N)C1CCCCC1)c1ccccc1)C(=O)Nc1ccc([N+](=O)[O-])cc1 [Beispiel 58, 2HBr.H-D-CHG-Ph'Gly-Arg-pNA] (H-[dChg]-[Phg]-Arg-pNA) |  | sehr empfindliche Substrate |
| N=C(N)NCCC[C@H](NC(=O)[C@@H]1CCCCN1C(=O)[C@H](N)CC1CCCCC1)C(=O)Nc1ccc([N+](=O)[O-])cc1 [Beispiel 66, 2HBr.H-D-CHA-Pip-Arg-pNA] (H-[dCha]-[Pip]-Arg-pNA) |  | sehr empfindliche Substrate |
| CC[C@@H](N)C(=O)N[C@@H](CC1CCCCC1)C(=O)N[C@@H](CCCCN)C(=O)Nc1ccc([N+](=O)[O-])cc1 [Beispiel 72, 2HBr.H-D-But-CHA-Lys-pNA] (H-[dAbu]-[Cha]-Lys-pNA) | eignen sich besonders als Substrate |  |
| CC(C)C[C@@H](N)C(=O)N[C@@H](CC1CCCCC1)C(=O)N[C@@H](CCCCN)C(=O)Nc1ccc([N+](=O)[O-])cc1 [Beispiel 73, 2HBr.H-D-Leu-CHA-Lys-pNA] (H-[dL]-[Cha]-Lys-pNA) | eignen sich besonders als Substrate |  |
